The full ranking holds about 33,000 sequences; the median of “E-score (-0.5 to 0.5)” is about -8e-05, and the highest 2% start at about 0.23. The list shows a part of the results.
What follows are sequences tested against T1, Nrg2 (UniProt P38082) (assay: PBM E-score (8-mer binding enrichment) (E-score (-0.5 to 0.5)); higher = stronger / more preferred TF binding). Conditions: protein concentration: 100 nM; construct: GST-full length.
T1 sequence: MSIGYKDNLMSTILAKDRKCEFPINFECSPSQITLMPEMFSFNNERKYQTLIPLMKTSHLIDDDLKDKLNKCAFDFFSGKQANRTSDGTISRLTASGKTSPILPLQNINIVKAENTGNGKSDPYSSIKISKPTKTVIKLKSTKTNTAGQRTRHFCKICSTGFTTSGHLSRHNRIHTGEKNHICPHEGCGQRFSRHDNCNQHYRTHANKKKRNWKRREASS
In short: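 Full-length yeast transcription factors or their DNA-binding domains, GST-tagged and expressed with PURExpress, were applied at about 100-200 nM to universal all-10-mer Agilent arrays. These arrays had been made double-stranded by primer extension on fresh or once-stripped slides. Detection used fluorescent anti-GST, normalisation used masliner, and E-scores for ungapped eight-base words pooled with reverse complements came from the Universal PBM Analysis Suite.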

First: CGCCCTTC
Second: CTAGCCTA
The “PBM E-score” value of the first is higher: -0.0852 for the first, -0.126 for the second.

Going from GGTACAAC to AGTATTGC, the “PBM E-score” value falls from 0.163 to -0.0277.

Going from CTCTGCGC to CCCTCTCG, the “PBM E-score” value falls from 0.0206 to -0.231.

Compared with CCAGGCAC, CTCATTGC is higher in “PBM E-score” value: -0.0452 for the first, 0.0644 for the second.

Compared with GAATTTCA, AGCCTCCA is lower in “PBM E-score” value: -0.0968 for the first, -0.243 for the second.

First: ATTAGATA
Second: TTCGGAAA
The “PBM E-score” value of the first is higher: 0.0113 for the first, 0.00835 for the second.

First: CAACCAAC
Second: GGGTCAAC
The “PBM E-score” value of the first is lower: 0.00033 for the first, 0.213 for the second.

Compared with TGAGGGCA, ACATCTAC is higher in “PBM E-score” value: -0.0513 for the first, 0.0746 for the second.

Compared with GGGTTCGA, ATTCCTTG is lower in “PBM E-score” value: 0.225 for the first, -0.0911 for the second.

First: TCCTACCA
Second: GCAGTTAA
The “PBM E-score” value of the first is lower: -0.0696 for the first, 0.0619 for the second.

First: GAAGGAAA
Second: ATTAGGGC
The “PBM E-score” value of the first is lower: -0.238 for the first, -0.043 for the second.

Going from AATATCCC to ATTGAACC, the “PBM E-score” value rises from 0.0682 to 0.112.

First: CAAATGCG
Second: CATCGTTC
The “PBM E-score” value of the first is higher: 0.268 for the first, -0.103 for the second.

Going from AACGTCAG to AGCCGCAC, the “PBM E-score” value rises from -0.0974 to -0.0483.

Compared with AACGCTGT, CCTTCGCC is lower in “PBM E-score” value: -0.06 for the first, -0.31 for the second.

Going from ATGCTCAC to ACATCTCC, the “PBM E-score” value rises from -0.206 to 0.0552.

First: ATTCGCGG
Second: AAGTCTAA
The “PBM E-score” value of the first is higher: 0.207 for the first, -0.0964 for the second.

First: TCTCATAA
Second: TGTAGAAA
The “PBM E-score” value of the first is higher: 0.0223 for the first, -0.0291 for the second.

First: CGGGTCGC
Second: TAGGTAAA
The “PBM E-score” value of the first is higher: -0.0689 for the first, -0.256 for the second.

Going from CAATTTAG to AGCTTCCC, the “PBM E-score” value falls from 0.104 to -0.151.

Compared with AACCACTT, TGCTACAA is higher in “PBM E-score” value: -0.03 for the first, 0.0879 for the second.

Compared with CATACAAC, CCCCTCAG is lower in “PBM E-score” value: 0.0674 for the first, -0.159 for the second.

Going from AACCTGGA to CTCCTACA, the “PBM E-score” value falls from -0.00995 to -0.0788.

Going from CCGGATTC to CTTAATGC, the “PBM E-score” value rises from -0.0118 to 0.0153.

Compared with AAACGGTG, AAACAATT is higher in “PBM E-score” value: -0.14 for the first, 0.137 for the second.

Going from TACGCCCA to CATCCTTC, the “PBM E-score” value falls from -0.0499 to -0.113.

Compared with CGGTATAG, ACAAACCC is higher in “PBM E-score” value: -0.0787 for the first, -0.00861 for the second.

First: CACCGGAG
Second: AGGGGAGC
The “PBM E-score” value of the first is lower: -0.176 for the first, -0.143 for the second.

First: AACAATAT
Second: GGACGGCC
The “PBM E-score” value of the first is higher: 0.266 for the first, -0.0271 for the second.

Going from CTAATTAA to CAGCTCGA, the “PBM E-score” value rises from -0.0653 to 0.113.

Compared with AAGTTGTC, AGTCGCCG is lower in “PBM E-score” value: 0.174 for the first, 0.0548 for the second.

Compared with AAAATTCT, GAAATCAC is higher in “PBM E-score” value: -0.13 for the first, 0.14 for the second.

First: CGGGGATC
Second: CTGTTCCC
The “PBM E-score” value of the first is higher: -0.041 for the first, -0.0599 for the second.

First: AGTACACG
Second: GACGCGTA
The “PBM E-score” value of the first is lower: -0.0994 for the first, 0.168 for the second.

Compared with GCTGATTA, AGAAACGG is lower in “PBM E-score” value: 0.109 for the first, 0.00701 for the second.

Going from CATACTAC to GGTAACAA, the “PBM E-score” value falls from 0.151 to 0.144.

Going from TACCTGCA to ACCCCGCT, the “PBM E-score” value rises from -0.0327 to 0.103.

Going from CACTCGGA to GATAGATC, the “PBM E-score” value falls from 0.147 to -0.0671.

Going from GAGAAAGC to CCAGTTGA, the “PBM E-score” value falls from 0.0912 to 0.0187.

First: AACCACGT
Second: ACTCCTGA
The “PBM E-score” value of the first is lower: -0.165 for the first, 0.0304 for the second.

Going from TAAGTGCA to ATGTGGTC, the “PBM E-score” value falls from 0.0499 to 0.00614.

First: AATCATAA
Second: ACCCAAAT
The “PBM E-score” value of the first is lower: -0.0592 for the first, 0.0414 for the second.

Compared with GATAGGGA, AGACACTA is higher in “PBM E-score” value: -0.0217 for the first, 0.079 for the second.

Going from CCGCTACC to ATTCCAAG, the “PBM E-score” value falls from 0.135 to 0.11.

First: ATGTCCCA
Second: GGATGCTA
The “PBM E-score” value of the first is lower: -0.0945 for the first, -0.0274 for the second.

Going from CACTTGTA to CTGAGCTA, the “PBM E-score” value falls from 0.0667 to -0.0962.

Compared with ACTTTTCG, TTAGAAAA is lower in “PBM E-score” value: 0.126 for the first, -0.166 for the second.

Compared with TAACTGAA, ACCACGGA is lower in “PBM E-score” value: 0.0417 for the first, -0.229 for the second.

First: GCAGTGCA
Second: GTGCGCGA
The “PBM E-score” value of the first is lower: -0.0476 for the first, -0.042 for the second.

Going from CACACAAA to AGAGGCAC, the “PBM E-score” value falls from 0.165 to 0.0312.

Going from CAGTTCAC to ATTAACAG, the “PBM E-score” value rises from 0.0554 to 0.111.

Compared with ATATTGTG, GTATGGCA is lower in “PBM E-score” value: 0.133 for the first, 0.0816 for the second.

First: GTCAGCTA
Second: CAGTATCA
The “PBM E-score” value of the first is lower: -0.185 for the first, -0.0774 for the second.

Compared with ATGCCACG, GACAGTCC is lower in “PBM E-score” value: -0.0251 for the first, -0.174 for the second.

First: ACGACAAG
Second: CCTAGTCA
The “PBM E-score” value of the first is higher: 0.0805 for the first, -0.0951 for the second.

Going from AAAGTGAC to GTCAAAAA, the “PBM E-score” value rises from -0.072 to -0.0378.

Compared with CTTCGAGA, GCTTGGCA is lower in “PBM E-score” value: -0.00769 for the first, -0.0882 for the second.

First: ACTGGCCT
Second: TAAATATA
The “PBM E-score” value of the first is lower: -0.0393 for the first, 0.144 for the second.

Compared with CGCTGATA, ACGGCTGG is higher in “PBM E-score” value: -0.0682 for the first, -0.0521 for the second.

Going from ATGACATG to CAGAGTAG, the “PBM E-score” value rises from -0.06 to 0.1.

Compared with AGGTACGG, ACAGGCGG is higher in “PBM E-score” value: -0.131 for the first, 0.021 for the second.

Compared with ATGAACCA, ATCAGCAT is lower in “PBM E-score” value: 0.187 for the first, 0.0775 for the second.

First: AAAAGTTT
Second: ACGAGGAG
The “PBM E-score” value of the first is lower: -0.0494 for the first, 0.0902 for the second.

Compared with AAGTGGGC, CCCTACGA is lower in “PBM E-score” value: 0.0154 for the first, 0.0112 for the second.

Compared with CGACCTCA, CATGTGTC is higher in “PBM E-score” value: -0.0396 for the first, -0.0154 for the second.

Compared with CCCAGAGA, ACCATACC is lower in “PBM E-score” value: -0.0625 for the first, -0.0923 for the second.

Going from AATATACC to AGACTCGG, the “PBM E-score” value falls from 0.0724 to -0.318.

Going from ACTCCTAC to GCATAAGC, the “PBM E-score” value rises from -0.0656 to 0.0163.

First: CTGCCCAC
Second: ACCACTCT
The “PBM E-score” value of the first is lower: -0.164 for the first, 0.0195 for the second.

First: ACGTCGAC
Second: ATACCAAG
The “PBM E-score” value of the first is lower: -0.0107 for the first, 0.13 for the second.

Going from CAACATTA to CCTACTAA, the “PBM E-score” value falls from 0.133 to -0.023.

Going from TGCGAGAA to CGAGCCCG, the “PBM E-score” value falls from -0.022 to -0.0355.

Compared with CCGGTTCC, ACTTATCG is higher in “PBM E-score” value: -0.0579 for the first, 0.0251 for the second.

First: CCTGGCAG
Second: CCGTGGAA
The “PBM E-score” value of the first is lower: -0.00758 for the first, -0.00678 for the second.

First: ACTGCAAA
Second: TATGCTGA
The “PBM E-score” value of the first is higher: 0.0615 for the first, -0.0222 for the second.

Compared with CCCTAACC, CTGGACGA is lower in “PBM E-score” value: -0.0294 for the first, -0.126 for the second.

Going from AGCAAAAT to CGTGGGCC, the “PBM E-score” value falls from 0.0735 to -0.0731.

Going from CGGAACAA to AAAACGGC, the “PBM E-score” value falls from 0.122 to 0.112.

Going from AGTCGGTC to CGGTCTTA, the “PBM E-score” value falls from -0.114 to -0.249.

First: AATGTTAC
Second: AGCTTCTC
The “PBM E-score” value of the first is lower: -0.0328 for the first, -0.0219 for the second.

Compared with CGGACAAA, GTCACGAA is lower in “PBM E-score” value: 0.107 for the first, -0.00388 for the second.

First: GAACTTAC
Second: GGTGGCGA
The “PBM E-score” value of the first is higher: -0.118 for the first, -0.16 for the second.

Going from CACATACC to CGATGTGA, the “PBM E-score” value rises from -0.218 to -0.0423.

First: ATACCTGG
Second: CAGTGAGA
The “PBM E-score” value of the first is higher: -0.115 for the first, -0.124 for the second.

Going from AACGTTGT to CGAAGACG, the “PBM E-score” value falls from 0.0521 to -0.0796.

Compared with CGCTTTTC, GACAAGAC is higher in “PBM E-score” value: -0.0275 for the first, 0.154 for the second.
